Article PMC4797270
These are yes or no findings as the source states them, for the method shown. Binding seen in cells or lysates may run through a third protein. A yes stands for co-enrichment or nearness to the bait. Other partners may have been found. A no says only that the protein was not detected with the bait.

Sequences of proteins named here, by UniProt entry; tags and fusion partners are left off. A change or cut given only in a name is not applied to a line headed by its entry.
UniProt Q0KIB3: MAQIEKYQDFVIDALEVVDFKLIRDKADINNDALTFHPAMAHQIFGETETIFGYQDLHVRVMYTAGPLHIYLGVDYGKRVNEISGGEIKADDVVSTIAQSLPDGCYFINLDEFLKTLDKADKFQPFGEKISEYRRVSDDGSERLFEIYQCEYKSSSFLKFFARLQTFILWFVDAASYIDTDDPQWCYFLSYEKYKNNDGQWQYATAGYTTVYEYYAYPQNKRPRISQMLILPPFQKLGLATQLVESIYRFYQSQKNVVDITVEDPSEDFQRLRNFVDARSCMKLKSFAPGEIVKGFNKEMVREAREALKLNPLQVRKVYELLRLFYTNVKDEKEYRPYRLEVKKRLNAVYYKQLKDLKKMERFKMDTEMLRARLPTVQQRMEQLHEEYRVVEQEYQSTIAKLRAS
UniProt Q9V6Q2: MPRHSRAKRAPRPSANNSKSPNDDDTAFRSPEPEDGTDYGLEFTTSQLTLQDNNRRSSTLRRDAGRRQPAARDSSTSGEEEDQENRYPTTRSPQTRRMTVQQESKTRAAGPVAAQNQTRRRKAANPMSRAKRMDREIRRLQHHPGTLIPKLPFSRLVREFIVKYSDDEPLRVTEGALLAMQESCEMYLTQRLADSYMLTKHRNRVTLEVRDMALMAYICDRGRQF
UniProt Q8IRG6: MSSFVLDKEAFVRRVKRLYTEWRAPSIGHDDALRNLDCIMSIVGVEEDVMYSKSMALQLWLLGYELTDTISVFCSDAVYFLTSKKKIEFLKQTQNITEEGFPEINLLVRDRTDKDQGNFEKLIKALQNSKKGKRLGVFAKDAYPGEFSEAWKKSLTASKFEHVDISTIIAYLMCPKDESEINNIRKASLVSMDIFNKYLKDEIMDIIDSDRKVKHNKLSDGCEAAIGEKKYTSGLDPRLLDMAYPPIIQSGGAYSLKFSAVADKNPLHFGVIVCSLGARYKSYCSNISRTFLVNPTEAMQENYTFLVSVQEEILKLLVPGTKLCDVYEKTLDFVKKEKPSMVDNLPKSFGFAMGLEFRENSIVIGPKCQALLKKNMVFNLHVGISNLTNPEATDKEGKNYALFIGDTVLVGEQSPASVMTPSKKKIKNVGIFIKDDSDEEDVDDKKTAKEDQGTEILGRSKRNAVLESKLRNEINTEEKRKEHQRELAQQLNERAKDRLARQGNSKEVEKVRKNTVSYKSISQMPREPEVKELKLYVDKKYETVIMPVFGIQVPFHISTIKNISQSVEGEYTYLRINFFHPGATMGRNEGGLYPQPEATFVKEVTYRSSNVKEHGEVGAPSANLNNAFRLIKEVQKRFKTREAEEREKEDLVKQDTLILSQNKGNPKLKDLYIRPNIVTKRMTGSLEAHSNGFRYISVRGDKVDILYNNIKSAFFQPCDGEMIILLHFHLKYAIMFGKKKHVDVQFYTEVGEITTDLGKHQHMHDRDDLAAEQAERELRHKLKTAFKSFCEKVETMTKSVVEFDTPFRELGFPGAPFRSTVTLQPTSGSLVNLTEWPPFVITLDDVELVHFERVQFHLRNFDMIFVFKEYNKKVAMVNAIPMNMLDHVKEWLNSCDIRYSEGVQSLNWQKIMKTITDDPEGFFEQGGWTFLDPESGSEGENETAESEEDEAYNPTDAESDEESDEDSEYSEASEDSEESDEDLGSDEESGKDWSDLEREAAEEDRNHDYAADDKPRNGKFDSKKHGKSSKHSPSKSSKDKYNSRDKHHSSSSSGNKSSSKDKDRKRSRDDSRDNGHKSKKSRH
UniProt Q24572: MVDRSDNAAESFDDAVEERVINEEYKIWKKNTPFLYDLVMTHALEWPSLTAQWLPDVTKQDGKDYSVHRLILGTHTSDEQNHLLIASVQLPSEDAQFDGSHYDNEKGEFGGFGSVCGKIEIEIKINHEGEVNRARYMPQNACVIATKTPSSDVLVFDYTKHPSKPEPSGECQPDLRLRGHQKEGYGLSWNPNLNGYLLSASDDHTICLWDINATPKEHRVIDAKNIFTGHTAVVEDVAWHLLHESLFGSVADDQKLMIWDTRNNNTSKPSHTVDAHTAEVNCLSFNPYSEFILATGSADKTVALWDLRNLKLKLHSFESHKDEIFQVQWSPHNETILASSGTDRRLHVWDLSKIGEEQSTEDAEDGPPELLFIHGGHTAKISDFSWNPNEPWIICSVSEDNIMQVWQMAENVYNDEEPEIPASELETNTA

Experiments:
[1] = biological target: SF-CG2051/Hat1 (S2 cells) (Drosophila melanogaster) (UniProt Q0KIB3); assay: affinity purification with mass spectrometry; large-scale immunopurification of Flag-CG2051/Hat1 (SF-CG2051) from S2 cells; purified proteins analysed by MS
[2] = biological target: EGFP-tagged CENP-A (Drosophila melanogaster) (UniProt Q9V6Q2); assay: affinity purification with mass spectrometry; α-GFP sepharose beads; low salt nuclear extract of S2 cells stably expressing EGFP-CENP-A, nontransfected S2 cells as control; eluates analysed by MS
[3] = biological target: StrepII-Flag (SF)-tagged CENP-A (Drosophila melanogaster) (UniProt Q9V6Q2); assay: affinity purification with mass spectrometry; tandem purification by streptactin-agarose followed by α-Flag magnetic beads (SF-TAP); low salt nuclear extract of S2 cells stably expressing SF-CENP-A, nontransfected S2 cells as control; eluates analysed by MS

Molecule	binding [1]	binding [2]	binding [3]
FACT subunit Dre4, endogenous (from UniProt Q8IRG6 1-1083)	no binding	binds	binds
CENP-A/Cid (endogenous) (from UniProt Q9V6Q2 1-225)	binds		
CG8223, fly homolog of Hif1/NASP (protein, UniProt Q9I7K6 1-492) MSAEAEAIVTTATADVSSPSKTVAVEPVAADTTPDNAPAVSTEGSGKAEQERAEKILKGKELFSQGSRNFLVKSYDEAADELSQVCQLYEEVYGELADELGQPLLLYAKALIAMALDENKVIDVPDEAADDDDEDVDDDEEESAEDGAAKKEEKKDTKEAANGASSSNGKELDTIKEGSDEADSTGEAEQAQSDEKPSKKVPTGVDEVSSSNGGGGAAVNDDERPSTSNGEVTASCSNGAAPAVEEEPEEEEGVSGSLQLAWEILEAAAQIFSRQGLSGLPYLAEVQTELANIEFENGILEAAREDYEKALKIHGELPTRNRRALAELHYKIGLTYLMQQLNKEGATALRQSSVLIEEEIAEIKGKDEPSERDRNNMLDLEETKQEILAKIQEIEEMQAQTIAEVRAALDSYIKPMSSGDAAAASSSSSSSANGAASSSSSSSKGAAAASSSTISSSSAKPTDITHLIKRKKPEDPSSEAEALCSPAKRAAV		no binding	no binding
nucleolar protein Modulo (protein, UniProt P13469 1-542) MAQKKAVTVKGKKATNGEEKPLAKRVTKSTKVQEEETVVPQSPSKKSRKQPVKEVPQFSEEDESDVEEQNDEQPGDDSDFETEEAAGLIDDEAEEDEEYNSDDEEDDDDDELEPGEVSKSEGADEVDESDDDEEAPVEKPVSKKSEKANSEKSEENRGIPKVKVGKIPLGTPKNQIVFVTNLPNEYLHKDLVALFAKFGRLSALQRFTNLNGNKSVLIAFDTSTGAEAVLQAKPKALTLGDNVLSVSQPRNKEENNERTVVVGLIGPNITKDDLKTFFEKVAPVEAVTISSNRLMPRAFVRLASVDDIPKALKLHSTELFSRFITVRRISQESISRTSELTLVVENVGKHESYSSDALEKIFKKFGDVEEIDVVCSKAVLAFVTFKQSDAATKALAQLDGKTVNKFEWKLHRFERSTSGRAILVTNLTSDATEADLRKVFNDSGEIESIIMLGQKAVVKFKDDEGFCKSFLANESIVNNAPIFIEPNSLLKHRLLKKRLAIGQTRAPRKFQKDTKPNFGKKPFNKRPAQENGGKSFVKRARF		binds	binds

Further lines, results first:

binding [1]	binding [2]	binding [3]	Molecule
	binds	binds	CG2051 (Hat1), endogenous (from UniProt Q0KIB3) (enzyme)
binds	binds	binds	Caf1 (Rbap46/48), endogenous (from UniProt Q24572 1-430)
no binding		binds	FACT subunit Ssrp, endogenous (protein, UniProt Q05344 1-723) MTDSLEYNDINAEVRGVLCSGRLKMTEQNIIFKNTKTGKVEQISAEDIDLINSQKFVGTWGLRVFTKGGVLHRFTGFRDSEHEKLGKFIKAAYSQEMVEKEMCVKGWNWGTARFMGSVLSFDKESKTIFEVPLSHVSQCVTGKNEVTLEFHQNDDAPVGLLEMRFHIPAVESAEEDPVDKFHQNVMSKASVISASGESIAIFREIQILTPRGRYDIKIFSTFFQLHGKTFDYKIPMDSVLRLFMLPHKDSRQMFFVLSLDPPIKQGQTRYHYLVLLFAPDEETTIELPFSEAELRDKYEGKLEKEISGPVYEVMGKVMKVLIGRKITGPGNFIGHSGTAAVGCSFKAAAGYLYPLERGFIYIHKPPLHIRFEEISSVNFARSGGSTRSFDFEVTLKNGTVHIFSSIEKEEYAKLFDYITQKKLHVSNMGKDKSGYKDVDFGDSDNENEPDAYLARLKAEAREKEEDDDDGDSDEESTDEDFKPNENESDVAEEYDSNVESDSDDDSDASGGGGDSDGAKKKKEKKSEKKEKKEKKHKEKERTKKPSKKKKDSGKPKRATTAFMLWLNDTRESIKRENPGIKVTEIAKKGGEMWKELKDKSKWEDAAAKDKQRYHDEMRNYKPEAGGDSDNEKGGKSSKKRKTEPSPSKKANTSGSGFKSKEYISDDDSTSSDDEKDNEPAKKKSKPPSDGDAKKKKAKSESEPEESEEDSNASDEDEEDEASD
		binds	importin karyopherin α3 (Kap-α3) (protein, UniProt Q9V455 1-514) MTSMEQNRLQNFKNKGKDQDEMRRRRNEVTVELRKNKREETILKRRNVPNLDSNTDEEEQLSSSIDLKKLAKAAADATKPEQQLAAVQAARKLLSSDKNPPINDLIQSDILPILVECLKQHNHTMLQFEAAWALTNIASGTSAQTNEVVAAGAVPLFLQLLNSPAPNVCEQAVWALGNIIGDGPLLRDFVIKHGVVQPLLSFIKPDIPITFLRNVTWVIVNLCRNKDPAPPTATIHEILPALNVLIHHTDTNILVDTVWAISYLTDGGNDQIQMVIESGVVPKLIPLLGNSEVKVQTAALRAVGNIVTGSDEQTQVVLNYDALSYFPGLLSHPKEKIRKEAVWFLSNITAGNQSQVQAVINVGLLPKIIENLSKGEFQTQKEAAWAISNLTISGNREQVFTLIKEGVIPPFCDLLSCQDTQVINVVLDGLNNMLKVADSHVEAVANCIEECEGLAKIERLQSHENVEIYKLAYEIIDQYFTDEGEQTNMAPTSDGAQYNFDPHADRLTMNSFNF
